In patent publication US7732504B2, “Functionalized photoinitiators” (Ciba Specialty Chemicals Corporation, priority 2004, dated 2010):

Assay: Odor of the cured film (blue offset printing ink)
Set-up: key: 1 (odorless); 3 (strong odor)
Settings: scale 1 to 3

| SMILES | odor (conc 3.0 %) | odor (conc 4.0 %) |
| --- | --- | --- |
| CCC(Cc1ccccc1)(C(=O)c1ccc(NCCO)cc1)N(C)C (centres unmarked) [Example 1, 2-benzyl-1-[4-(2-hydroxyethylamino)phenyl]-2-dimethylamino-1-butanone] | 1 | 1 |
| CCC(Cc1ccccc1)(C(=O)c1ccc(N2CCOCC2)cc1)N(C)C (centres unmarked) [Irgacure 369, 2-benzyl-2-(dimethylamino)-1-[4-(4-morpholinyl)phenyl]-1-butanone] | 1 | 1 |
| CSc1ccc(C(=O)C(C)(C)N2CCOCC2)cc1 [Irgacure 907] |  | 2-3 |
